Reference: the supplement of paper PMC4604168 (melanoma cell lines)
The list shows a part of the results. Repeats are few or missing, and single values can be far off.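 Cells were imaged in 1,536-well plates, and nuclei stained with an antibody against cleaved PARP were counted against all DNA-stained nuclei to give the apoptosis fraction. Screening doses were chosen to leave most cells alive, and resting and induced cleaved-PARP levels differ strongly between cell lines.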

Each compound was assayed on SkMel5 (assay: cleaved PARP positive nuclei fraction relative to DMSO control; melanoma cells; higher = more apoptosis). Details: library dose: low library concentration; 72 h.

Question: `N#Cc1c(O)c2c(-c3ccc(-c4ccccc4O)cc3)csc2[nH]c1=O` + COC(=O)c1sccc1S(=O)(=O)Nc1ccc(Nc2ccccc2)cc1OC [GSK0660] (first compound 2 µM, partner dose 1 µM) was tested. Which “cleaved PARP positive nuclei fraction” value did it give?
Answer: 28.6%

Question: `NCC(=O)Nc1ccc(-n2nc(C(F)(F)F)cc2-c2ccc3c(ccc4ccccc43)c2)cc1` + CN(NC(=O)CC(=O)NN(C)C(=S)c1ccccc1)C(=S)c1ccccc1 [STA4783] (first compound 1 µM, partner dose 0.006 µM) was tested. Which “cleaved PARP positive nuclei fraction” value did it give?
Answer: 123%

Question: With `NCC(=O)Nc1ccc(-n2nc(C(F)(F)F)cc2-c2ccc3c(ccc4ccccc43)c2)cc1` + COc1cc(N2CCC(N3CCN(C)CC3)CC2)ccc1Nc1ncc(Cl)c(Nc2ccccc2S(=O)(=O)C(C)C)n1 [NVP-TAE684] (first compound 1 µM, partner dose 0.08 µM) as the compound, how does the “cleaved PARP positive nuclei fraction” value read?
Answer: 114%

Question: `CCc1ccc(CCOc2ccc(CC3SC(=O)NC3=O)cc2)nc1` (configuration not stated) [pioglitazone] + O=C(O)C(=O)Nc1sc2c(c1C(=O)O)CCNC2 [TCS401] (first compound 2 µM, partner dose 1.66667 µM) was tested. Which “cleaved PARP positive nuclei fraction” value did it give?
Answer: 55.4%

Question: `CCN(CC)CCCCNc1ncc2cc(-c3cc(OC)cc(OC)c3)c(NC(=O)NC(C)(C)C)nc2n1` + Oc1cc(-c2nc(-c3ccccc3)[nH]c2-c2ccncc2)ccc1Cl [L779450] (first compound 0.1 µM, partner dose 0.2 µM) was tested. Which “cleaved PARP positive nuclei fraction” value did it give?
Answer: 28.1%

Question: With `O=C1NC(=O)/C(=C/c2ccc(-c3ccc(F)cc3O)o2)S1` + Cc1cc([N+](=O)[O-])ccc1NS(=O)(=O)c1cc(Cl)ccc1Cl [FH535] (first compound 1 µM, partner dose 1 µM) as the compound, how does the “cleaved PARP positive nuclei fraction” value read?
Answer: 70.3%

Question: `c1cc(-c2cnn3cc(-c4ccc(OCCN5CCCCC5)cc4)cnc23)ccn1` [Dorsomorphin] + CCCCCCCCCCCC1=C(O)C(=O)C=C(O)C1=O [Embelin] (first compound 0.4 µM, partner dose 1.2 µM) was tested. Which “cleaved PARP positive nuclei fraction” value did it give?
Answer: 25.9%

Question: `COC(=O)c1sccc1S(=O)(=O)Nc1ccc(Nc2ccccc2)cc1OC` + O=C(O)C(=O)Nc1sc2c(c1C(=O)O)CCNC2 [TCS401] (first compound 1 µM, partner dose 1.66667 µM) was tested. Which “cleaved PARP positive nuclei fraction” value did it give?
Answer: 218%

Question: For `O=C(Nc1ccccc1)c1cc([N+](=O)[O-])ccc1Cl` + COc1ccc(-c2ccc3c(N4CCOCC4)nc(N4C[C@@H](C)O[C@@H](C)C4)nc3n2)cc1CO [KU0063794] (first compound 2 µM, partner dose 0.02 µM), which “cleaved PARP positive nuclei fraction” value is on record?
Answer: 66%

Question: For `O=C(O)c1ccc(-c2c[nH]c3ncc(-c4ccccc4)cc23)cc1C1CCCC1` + COc1cc2c(Oc3ccc4[nH]c(C)cc4c3F)ncnc2cc1OCCCN1CCCC1 [cediranib] (first compound 0.16 µM, partner dose 0.4 µM), which “cleaved PARP positive nuclei fraction” value is on record?
Answer: 187%

Question: With `CN(C)S(=O)(=O)c1ccc2c(c1)/C(=C/c1cc3c([nH]1)CCCC3)C(=O)N2` + CN(NC(=O)CC(=O)NN(C)C(=S)c1ccccc1)C(=S)c1ccccc1 [STA4783] (first compound 0.4 µM, partner dose 0.006 µM) as the compound, how does the “cleaved PARP positive nuclei fraction” value read?
Answer: 95.3%

Question: For `O=C(O)c1ccc(-c2c[nH]c3ncc(-c4ccccc4)cc23)cc1C1CCCC1` + NCC(=O)Nc1ccc(-n2nc(C(F)(F)F)cc2-c2ccc3c(ccc4ccccc43)c2)cc1 [OSU03012] (first compound 0.16 µM, partner dose 1 µM), which “cleaved PARP positive nuclei fraction” value is on record?
Answer: 419%

Question: With `CN(C)S(=O)(=O)c1ccc2c(c1)/C(=C/c1cc3c([nH]1)CCCC3)C(=O)N2` + COc1cc2c(Oc3ccc4[nH]c(C)cc4c3F)ncnc2cc1OCCCN1CCCC1 [cediranib] (first compound 0.4 µM, partner dose 0.4 µM) as the compound, how does the “cleaved PARP positive nuclei fraction” value read?
Answer: 265%

Question: With `COC(=O)c1sccc1S(=O)(=O)Nc1ccc(Nc2ccccc2)cc1OC` + Oc1cc(-c2nc(-c3ccccc3)[nH]c2-c2ccncc2)ccc1Cl [L779450] (first compound 1 µM, partner dose 0.2 µM) as the compound, how does the “cleaved PARP positive nuclei fraction” value read?
Answer: 39.2%

Question: `O=C1NC(=O)/C(=C/c2ccc(-c3ccc(F)cc3O)o2)S1` + CCCCCCCCCCCC1=C(O)C(=O)C=C(O)C1=O [Embelin] (first compound 1 µM, partner dose 1.2 µM) was tested. Which “cleaved PARP positive nuclei fraction” value did it give?
Answer: 27%

Question: For `COc1cc(N2CCC(N3CCN(C)CC3)CC2)ccc1Nc1ncc(Cl)c(Nc2ccccc2S(=O)(=O)C(C)C)n1` + CC(C)CCN1c2nc(Nc3cc(F)c(O)c(F)c3)ncc2N(C)C(=O)C1C [BID1870] (first compound 0.08 µM, partner dose 0.2 µM), which “cleaved PARP positive nuclei fraction” value is on record?
Answer: 100%

Question: `CN(C)S(=O)(=O)c1ccc2c(c1)/C(=C/c1cc3c([nH]1)CCCC3)C(=O)N2` + O=C(O)c1ccc(-c2c[nH]c3ncc(-c4ccccc4)cc23)cc1C1CCCC1 [GSK650394] (first compound 0.4 µM, partner dose 0.16 µM) was tested. Which “cleaved PARP positive nuclei fraction” value did it give?
Answer: 138%

Question: With `COc1cc2ncnc(Nc3ccc(Oc4ccccc4)cc3)c2cc1OC` + O=C1NC(=O)/C(=C/c2ccc(-c3ccc(F)cc3O)o2)S1 [AS252424] (first compound 2 µM, partner dose 1 µM) as the compound, how does the “cleaved PARP positive nuclei fraction” value read?
Answer: 55.7%

Question: `CCN(CC)CCCCNc1ncc2cc(-c3cc(OC)cc(OC)c3)c(NC(=O)NC(C)(C)C)nc2n1` + COc1cc(N2CCC(N3CCN(C)CC3)CC2)ccc1Nc1ncc(Cl)c(Nc2ccccc2S(=O)(=O)C(C)C)n1 [NVP-TAE684] (first compound 0.1 µM, partner dose 0.08 µM) was tested. Which “cleaved PARP positive nuclei fraction” value did it give?
Answer: 94.5%

Question: `O=C(Nc1ccccc1)c1cc([N+](=O)[O-])ccc1Cl` + Cc1cc([N+](=O)[O-])ccc1NS(=O)(=O)c1cc(Cl)ccc1Cl [FH535] (first compound 2 µM, partner dose 1 µM) was tested. Which “cleaved PARP positive nuclei fraction” value did it give?
Answer: 46%

Question: For `COc1ccc(-c2ccc3c(N4CCOCC4)nc(N4C[C@@H](C)O[C@@H](C)C4)nc3n2)cc1CO` + Cn1cc(/C=C2\C(=O)Nc3cccnc32)c2ccccc21 [GW441756] (first compound 0.02 µM, partner dose 0.4 µM), which “cleaved PARP positive nuclei fraction” value is on record?
Answer: 34.4%

Question: For `COc1cc2c(Oc3ccc4[nH]c(C)cc4c3F)ncnc2cc1OCCCN1CCCC1` [cediranib] + O=c1cc(-c2cccc3c2Sc2ccccc2S3)oc(N2CCOCC2)c1 [KU55933] (first compound 0.4 µM, partner dose 1 µM), which “cleaved PARP positive nuclei fraction” value is on record?
Answer: 27.7%
